This note sets out measurements from US20030229204A1.

By UniProt entry, the sequences of proteins in these tests, tags left out.
UniProt P37238: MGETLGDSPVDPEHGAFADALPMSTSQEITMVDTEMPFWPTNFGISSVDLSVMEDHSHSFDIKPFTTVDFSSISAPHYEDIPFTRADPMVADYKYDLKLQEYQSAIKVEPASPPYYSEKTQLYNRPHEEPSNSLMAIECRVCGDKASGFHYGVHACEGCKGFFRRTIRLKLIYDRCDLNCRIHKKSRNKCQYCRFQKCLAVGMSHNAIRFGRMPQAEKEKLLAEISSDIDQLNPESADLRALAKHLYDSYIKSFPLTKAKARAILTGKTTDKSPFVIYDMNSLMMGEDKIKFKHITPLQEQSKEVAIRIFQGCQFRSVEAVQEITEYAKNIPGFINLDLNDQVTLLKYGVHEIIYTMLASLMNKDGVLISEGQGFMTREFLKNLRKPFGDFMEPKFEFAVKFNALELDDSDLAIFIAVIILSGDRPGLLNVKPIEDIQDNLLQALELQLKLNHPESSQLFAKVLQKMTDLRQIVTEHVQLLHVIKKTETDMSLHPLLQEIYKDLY

Results are given in words; binding and its absence hold for the method and conditions named. For some assays here: Binding seen in cells or lysates may run through a third protein. Some results given as binding are weak or reduced against the parent protein; the word gives no strength. For some assays here: Where a sequence is shown, tags or fusion partners need not be part of it.

Assay [1] has as its target GAL4 DNA-binding domain fused to amino acids 183-505 of murine PPARγ (murine) (UniProt P04386+P37238). Description: yeast two-hybrid screen, β-galactosidase filter assay.
Assay [2] has as its target GST-PPARγ fusion protein (immobilized PPARγ) (UniProt P37238). Description: pull-down of in vitro-translated 35S-labeled PGC-1 deletion with immobilized GST-PPARγ.
The target in assay [3] is PPARγ (UniProt P37238). Description: co-immunoprecipitation from transfected COS cells: anti-PPARγ immunoprecipitation, anti-HA Western blot. A general note: A western blot detects proteins with antibodies after separation by electrophoresis.
Assay [4] addresses GST-PPARγ fusion protein (immobilized PPARγ) (UniProt P37238). Description: pull-down of in vitro-translated PGC-1 with immobilized PPARγ.
The target is the same in assay [5]. As to the kind of experiment: pull-down of in vitro-translated 35S-labeled PGC-1 with immobilized GST-PPARγ.
For assay [6], the target named is PPARγ (UniProt P37238). As to the kind of experiment: summary of the in vitro binding assays of Example IV.
In assay [7] the target is PPARγ (UniProt P37238). Description: GST pull-down of in vitro-translated 35S-labeled receptor, autoradiography.

B1: partial PGC-1 clone (nucleotides 610 to 3066 of SEQ ID NO:1) in the GAL4 activation domain plasmid pACT II (protein, not shown: large carriers)
chain: RIRTNPAIVKTENSWSNKAKSICQQQKPQRRPCSELLKYLTTNDDPPHTKPTENRNSSRDKCASKKKSHTQPQSQHAQAKPTTLSLPLTPESPNDPKGSPFENKTIERTLSVELSGTAGLTPPTTPPHKANQDNPFKASPKLKPSCKTVVPPPTKRARYSECSGTQGSHSTKKGPEQSELYAQLSKSSGLSRGHEERKTKRPSLRLFGDHDYCQSLNSKTDILINISQELQDSRQLDFKDASCDWQGHICSSTDSGQCYLRETLEASKQVSPCSTRKQLQDQEIRAELNKHFGHPCQAVFDDKSDKTSELRDGDFSNEQFSKLPVFINSGLAMDGLFDDSEDESDKLSYPWDGTQPYSLFDVSPSCSSFNSPCRDSVSPPKSLFSQRPQRMRSRSRSFSRHRSCSRSPYSRSRSRSPGSRSSSRSCYYYESSHYRHRTHRNSPLYVRSRSRSPYSRRPRYDSYEAYEHERLKRDEYRKEHEKRESERAKQRERQKQKAIEERRVIYVGKIRPDTTRTELRDRFEVFGEIEECTVNLRDDGDSYGFITYRYTCDAFAALENGYTLRRSNETDFELYFCGRKQFFKSNYADLDTNSDDFDPASTKSKYDSLDFDSLLKEAQRSLRR
B1: the binding result in assay [1] is listed as “binds”.

B2: PGC-1 1-403 (protein)
chain: MAWDMCSQDSVWSDIECAALVGEDQPLCPDLPELDLSELDVNDLDTDSFLGGLKWCSDQSEIISNQYNNEPANIFEKIDEENEANLLAVLTETLDSLPVDEDGLPSFDALTDGAVTTDNEASPSSMPDGTPPPQEAEEPSLLKKLLLAPANTQLSYNECSGLSTQNHAANHTHRIRTNPAIVKTENSWSNKAKSICQQQKPQRRPCSELLKYLTTNDDPPHTKPTENRNSSRDKCASKKKSHTQPQSQHAQAKPTTLSLPLTPESPNDPKGSPFENKTIERTLSVELSGTAGLTPPTTPPHKANQDNPFKASPKLKPSCKTVVPPPTKRARYSECSGTQGSHSTKKGPEQSELYAQLSKSSGLSRGHEERKTKRPSLRLFGDHDYCQSLNSKTDILINISQEL
modifications: [35S]methionine-labeled
Regarding B2, in assay [2], the binding entry is “binds”.

B3: HA-tagged full-length PGC-1 (protein, not shown: small tags and cut ends)
chain: MAWDMCSQDSVWSDIECAALVGEDQPLCPDLPELDLSELDVNDLDTDSFLGGLKWCSDQSEIISNQYNNEPANIFEKIDEENEANLLAVLTETLDSLPVDEDGLPSFDALTDGAVTTDNEASPSSMPDGTPPPQEAEEPSLLKKLLLAPANTQLSYNECSGLSTQNHAANHTHRIRTNPAIVKTENSWSNKAKSICQQQKPQRRPCSELLKYLTTNDDPPHTKPTENRNSSRDKCASKKKSHTQPQSQHAQAKPTTLSLPLTPESPNDPKGSPFENKTIERTLSVELSGTAGLTPPTTPPHKANQDNPFKASPKLKPSCKTVVPPPTKRARYSECSGTQGSHSTKKGPEQSELYAQLSKSSGLSRGHEERKTKRPSLRLFGDHDYCQSLNSKTDILINISQELQDSRQLDFKDASCDWQGHICSSTDSGQCYLRETLEASKQVSPCSTRKQLQDQEIRAELNKHFGHPCQAVFDDKSDKTSELRDGDFSNEQFSKLPVFINSGLAMDGLFDDSEDESDKLSYPWDGTQPYSLFDVSPSCSSFNSPCRDSVSPPKSLFSQRPQRMRSRSRSFSRHRSCSRSPYSRSRSRSPGSRSSSRSCYYYESSHYRHRTHRNSPLYVRSRSRSPYSRRPRYDSYEAYEHERLKRDEYRKEHEKRESERAKQRERQKQKAIEERRVIYVGKIRPDTTRTELRDRFEVFGEIEECTVNLRDDGDSYGFITYRYTCDAFAALENGYTLRRSNETDFELYFCGRKQFFKSNYADLDTNSDDFDPASTKSKYDSLDFDSLLKEAQRSLRR
As to B3, the binding entry in assay [3] was “binds”.

B4: full-length mouse PGC-1 (aa 1-797) (protein)
chain: B3 chain
modifications: [35S]methionine-labeled in the pull-down assays
With B4, the binding result in assay [4] and in assay [5] was “binds” throughout.

B5: PGC-1 (aa 36-797) fused to GST (protein, not shown: a dimerising Fc or GST)
chain: LSELDVNDLDTDSFLGGLKWCSDQSEIISNQYNNEPANIFEKIDEENEANLLAVLTETLDSLPVDEDGLPSFDALTDGAVTTDNEASPSSMPDGTPPPQEAEEPSLLKKLLLAPANTQLSYNECSGLSTQNHAANHTHRIRTNPAIVKTENSWSNKAKSICQQQKPQRRPCSELLKYLTTNDDPPHTKPTENRNSSRDKCASKKKSHTQPQSQHAQAKPTTLSLPLTPESPNDPKGSPFENKTIERTLSVELSGTAGLTPPTTPPHKANQDNPFKASPKLKPSCKTVVPPPTKRARYSECSGTQGSHSTKKGPEQSELYAQLSKSSGLSRGHEERKTKRPSLRLFGDHDYCQSLNSKTDILINISQELQDSRQLDFKDASCDWQGHICSSTDSGQCYLRETLEASKQVSPCSTRKQLQDQEIRAELNKHFGHPCQAVFDDKSDKTSELRDGDFSNEQFSKLPVFINSGLAMDGLFDDSEDESDKLSYPWDGTQPYSLFDVSPSCSSFNSPCRDSVSPPKSLFSQRPQRMRSRSRSFSRHRSCSRSPYSRSRSRSPGSRSSSRSCYYYESSHYRHRTHRNSPLYVRSRSRSPYSRRPRYDSYEAYEHERLKRDEYRKEHEKRESERAKQRERQKQKAIEERRVIYVGKIRPDTTRTELRDRFEVFGEIEECTVNLRDDGDSYGFITYRYTCDAFAALENGYTLRRSNETDFELYFCGRKQFFKSNYADLDTNSDDFDPASTKSKYDSLDFDSLLKEAQRSLRR
Turning to B5, the binding result in assay [6] and in assay [7] was “binds” each time.

B6: PGC-1 1-338 (protein)
chain: MAWDMCSQDSVWSDIECAALVGEDQPLCPDLPELDLSELDVNDLDTDSFLGGLKWCSDQSEIISNQYNNEPANIFEKIDEENEANLLAVLTETLDSLPVDEDGLPSFDALTDGAVTTDNEASPSSMPDGTPPPQEAEEPSLLKKLLLAPANTQLSYNECSGLSTQNHAANHTHRIRTNPAIVKTENSWSNKAKSICQQQKPQRRPCSELLKYLTTNDDPPHTKPTENRNSSRDKCASKKKSHTQPQSQHAQAKPTTLSLPLTPESPNDPKGSPFENKTIERTLSVELSGTAGLTPPTTPPHKANQDNPFKASPKLKPSCKTVVPPPTKRARYSECSGT
modifications: [35S]methionine-labeled
Take B6: the binding entry in assay [2] is “binds”.
